This is one part of the list.
molecular target: Voltage-dependent N-type calcium channel subunit alpha-1B (Homo sapiens) (UniProt Q00975); test: disruptors of CaV2.2 binding to Mint1 – biochemical, HTRF (AID 2073); settings: HTRF protein-protein interaction, Mint1-CaV2.2; measured here: average of repeat tests; at 20 µM; stronger effect = higher value

By UniProt entry, the sequences of proteins in these tests, tags left out.
UniProt Q00975, whole entry: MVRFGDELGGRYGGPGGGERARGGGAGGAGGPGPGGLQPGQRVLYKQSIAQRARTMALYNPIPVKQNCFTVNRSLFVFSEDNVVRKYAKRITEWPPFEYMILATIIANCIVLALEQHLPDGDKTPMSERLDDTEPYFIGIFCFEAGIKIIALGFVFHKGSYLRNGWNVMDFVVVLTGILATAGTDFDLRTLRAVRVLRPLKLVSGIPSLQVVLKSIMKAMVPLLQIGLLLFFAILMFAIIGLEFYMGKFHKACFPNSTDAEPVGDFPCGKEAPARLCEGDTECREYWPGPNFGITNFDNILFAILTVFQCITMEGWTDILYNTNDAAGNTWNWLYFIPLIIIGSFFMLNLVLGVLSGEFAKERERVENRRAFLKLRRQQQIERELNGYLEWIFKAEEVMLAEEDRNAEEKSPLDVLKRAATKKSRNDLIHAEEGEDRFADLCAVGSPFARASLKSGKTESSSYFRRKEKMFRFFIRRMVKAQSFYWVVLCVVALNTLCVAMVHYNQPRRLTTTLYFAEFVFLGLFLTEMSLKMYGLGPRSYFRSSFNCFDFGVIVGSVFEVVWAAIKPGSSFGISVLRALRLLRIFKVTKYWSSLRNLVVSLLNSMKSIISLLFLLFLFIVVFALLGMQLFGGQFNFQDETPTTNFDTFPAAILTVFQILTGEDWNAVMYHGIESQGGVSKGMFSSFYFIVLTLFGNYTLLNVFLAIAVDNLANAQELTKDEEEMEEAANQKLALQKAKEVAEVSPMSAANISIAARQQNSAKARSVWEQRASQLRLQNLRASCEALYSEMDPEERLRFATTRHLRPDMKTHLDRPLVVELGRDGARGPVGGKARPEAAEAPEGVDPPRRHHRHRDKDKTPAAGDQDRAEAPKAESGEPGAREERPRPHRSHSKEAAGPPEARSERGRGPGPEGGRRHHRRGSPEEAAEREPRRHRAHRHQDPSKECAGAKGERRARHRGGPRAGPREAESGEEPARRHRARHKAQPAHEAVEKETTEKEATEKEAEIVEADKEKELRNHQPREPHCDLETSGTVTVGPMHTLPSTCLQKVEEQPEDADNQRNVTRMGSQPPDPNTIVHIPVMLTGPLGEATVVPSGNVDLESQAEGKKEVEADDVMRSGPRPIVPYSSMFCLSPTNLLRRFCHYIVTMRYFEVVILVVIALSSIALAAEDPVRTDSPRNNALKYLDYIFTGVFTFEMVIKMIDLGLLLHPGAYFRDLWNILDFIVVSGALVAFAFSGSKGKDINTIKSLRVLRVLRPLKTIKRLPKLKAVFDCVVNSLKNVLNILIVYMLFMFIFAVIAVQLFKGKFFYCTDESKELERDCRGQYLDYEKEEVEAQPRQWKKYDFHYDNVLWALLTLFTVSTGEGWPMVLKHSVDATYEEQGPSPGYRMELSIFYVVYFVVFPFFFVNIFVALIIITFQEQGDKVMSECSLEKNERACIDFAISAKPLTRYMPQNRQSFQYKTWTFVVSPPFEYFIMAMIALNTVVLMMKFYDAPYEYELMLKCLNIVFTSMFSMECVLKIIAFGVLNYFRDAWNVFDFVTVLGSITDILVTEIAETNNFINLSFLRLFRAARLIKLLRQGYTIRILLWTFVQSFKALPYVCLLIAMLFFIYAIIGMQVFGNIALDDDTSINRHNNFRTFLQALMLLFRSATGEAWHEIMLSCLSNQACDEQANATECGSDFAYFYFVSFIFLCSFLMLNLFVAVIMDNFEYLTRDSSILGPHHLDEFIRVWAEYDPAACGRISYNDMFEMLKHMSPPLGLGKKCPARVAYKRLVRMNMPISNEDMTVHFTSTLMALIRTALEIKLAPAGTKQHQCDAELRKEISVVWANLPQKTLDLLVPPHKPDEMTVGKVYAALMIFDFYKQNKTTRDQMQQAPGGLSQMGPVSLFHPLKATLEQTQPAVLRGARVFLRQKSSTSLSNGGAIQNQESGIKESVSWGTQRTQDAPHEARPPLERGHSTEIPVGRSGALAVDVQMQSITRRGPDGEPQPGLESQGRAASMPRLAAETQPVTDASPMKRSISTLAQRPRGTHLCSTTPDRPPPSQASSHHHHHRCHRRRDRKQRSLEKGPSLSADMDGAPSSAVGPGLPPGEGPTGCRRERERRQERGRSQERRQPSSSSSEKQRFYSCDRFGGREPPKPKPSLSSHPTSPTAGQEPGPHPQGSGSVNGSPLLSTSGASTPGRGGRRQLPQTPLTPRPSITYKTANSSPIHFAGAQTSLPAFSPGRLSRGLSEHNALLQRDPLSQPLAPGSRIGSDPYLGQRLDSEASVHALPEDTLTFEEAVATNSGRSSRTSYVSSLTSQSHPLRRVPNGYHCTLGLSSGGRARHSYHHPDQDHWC

Structure (SMILES)	inhibition
CCN(CC)c1ccc(NC(=O)Cn2c(C(C)NC(=O)c3ccccc3)nc3ccccc32)cc1 (stereo unspecified)	69.2%

From PubChem BioAssay AID2073 (Sanford-Burnham Center for Chemical Genomics, 2009)
